# Source: the supplement of paper PMC12009310
# Where a name gives a salt, the structure may show the parent alone. ± gives the standard deviation of the averaged measurements. The list shows a part of the results. Baselines shift from plate to plate; read single values as rough.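 The cells are a mouse kidney inner medullary collecting duct line, silenced either for the ciliary gene Rpgrip1l or with a non-targeting control siRNA.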
# Test system: mIMCD3
# Assay: robust z score of cilia incidence (% cells with single cilium) vs plate controls; higher = more ciliated cells
# Settings: 10 µM; 48 h; siRNA: siScr
row,Structure (SMILES),robust z score of cilia incidence
1,OC(CN1CCN(c2cccc(Cl)c2)CC1)C(c1ccccc1)c1ccccc1 (stereo not drawn),-2.25 ± 2.2
2,COc1cc(N)c(Cl)cc1C(=O)CCC1CCN(CCNS(C)(=O)=O)CC1,-26.4 ± 11
3,C#CCN1C(C)=C(C(=O)OC)C(c2cccc([N+](=O)[O-])c2)C(C(=O)OCC)=C1C (stereo not drawn),4.32 ± 0.22
4,CCc1cc(-c2n[nH]c(C)c2-c2ccc3c(c2)OCCO3)c(O)cc1O,-46.7 ± 42
5,CN1CCc2cc(Cl)c(O)cc2[C@@H](c2ccccc2)C1,-3.17 ± 0.39
6,O=C1C(SCCO)=C(SCCO)C(=O)c2ccccc21,-39.6 ± 15
7,CCn1c(=O)[nH]c2ccccc21,-1.63 ± 1.6
8,COc1cc(-c2ccc(=O)[nH]n2)ccc1OC(F)F [Zardaverine],1.21 ± 2.3
9,CC(C)C[C@@H](C(=O)N[C@H](C(=O)OC1CCCC1)c1ccccc1)[C@H](O)C(=O)NO,-9.26 ± 5.6
10,COC(=O)/C=C/c1cccc(N(Cc2ccc(-c3ccc(N(C)C)cc3)cc2)C(=O)C2CCCCC2)c1 [Fexaramine],-10.3 ± 1.4
11,COc1ccccc1N1CCN(CCCCN2C(=O)c3ccccc3C2=O)CC1 [NAN-190 hydrobromide],-0.102 ± 1.2
12,O=C1CC2(CCCC2)CC(=O)N1CCNCC1COc2ccccc2O1 (stereo not drawn),-26.1 ± 2.8
13,O=S(=O)(c1cccc2c(Cl)cccc12)N1CCCNCC1 [ML 9 hydrochloride],-38.4 ± 1.9
14,O=C(NCCNCC(O)COc1ccc(O)cc1)N1CCOCC1 (stereo not drawn) [Xamoterol hemifumarate],-1.38 ± 2.8
15,C[C@H](NC(=O)c1sccc1OCc1ccc(Cl)cc1)c1ccccc1,-59.5 ± 11
16,CCOC(=O)c1c(C)[nH]c2ccc3c(c12)CN1CCc2cc(OC)ccc2C1O3 (stereo not drawn),-75.8 ± 48
17,CCC(=O)NC1Cc2ccccc2C(c2ccccc2)C1 (stereo not drawn),0.0355 ± 2
18,CCCN(C/C=C/I)C1CCc2cccc(O)c2C1 (stereo not drawn) [8-Hydroxy-PIPAT oxalate],-0.0375 ± 0.64
19,COc1ccc2c3c1O[C@H]1C[C@@H](O)C=C[C@@]31CCN(C)C2 [Galanthamine hydrobromide],0.434 ± 0.38
20,N[C@@H](C(=O)O)c1ccc(O)c(C(=O)O)c1 [(R)-3-Carboxy-4-hydroxyphenylglycine],1.01 ± 0.2

row,Structure (SMILES),robust z score of cilia incidence
1,Nc1nccc(-c2ccc3noc(-c4ccc(Cl)cc4)c3c2)n1 [PIM 1 Inhibitor 2],-1.36 ± 0.04
2,N#C/C(=C\c1ccc(O)c(O)c1)C(=O)NCCCCc1ccccc1,-18.9 ± 14
3,CC(C)c1ccc2c(c1)CC[C@H]1[C@](C)(CN)CCC[C@]21C [Lylamine hydrochloride],-35 ± 16
4,O=C(O)CC/C=C\C[C@H]1CO[C@@H](c2ccccc2Cl)O[C@H]1c1ccccc1O,0.473 ± 0.67
5,CC(Oc1ccc(O)cc1)(P(=O)(O)O)P(=O)(O)O,0.105 ± 2.8
6,O=C(/C=C/c1ccccc1)NC(NC(=S)Nc1cccc2cccnc12)C(Cl)(Cl)Cl (stereo not drawn) [Salubrinal],-5.14 ± 3.8
7,CCCn1c(=O)[nH]c2nc(-c3ccc(S(=O)(=O)O)cc3)[nH]c2c1=O,1.06 ± 2.4
8,O=c1[nH]c2cc(C(F)(F)F)c(N3CCOCC3)cc2n(CP(=O)(O)O)c1=O,0.319 ± 1.3
9,NC(C(=O)O)c1cc(O)cc(O)c1 (racemic),1.69 ± 2.7
10,CSc1cc2c(cc1C(F)(F)F)N(C(=O)Nc1cccnc1)CC2,5.63 ± 4.1
11,O=C(NC(NC(=S)Nc1ccc(F)c([N+](=O)[O-])c1)C(Cl)(Cl)Cl)C(c1ccccc1)c1ccccc1 (stereo not drawn),-67 ± 18
12,O=C1c2ccccc2C(Cc2ccncc2)(Cc2ccncc2)c2ccccc21 [XE 991 dihydrochloride],0.964 ± 1.5
13,Cc1noc(NS(=O)(=O)c2ccc(N)cc2)c1C [Sulfisoxazole],1.11 ± 5
14,O=C(OCCN1CCOCC1)C1(c2ccccc2)CCCCC1 [PRE-084 hydrochloride],0.565 ± 0.38
15,CCN1CCCC1CNC(=O)c1cc(S(=O)(=O)CC)c(N)cc1OC (stereo not drawn) [Amisulpride],0.384 ± 2.8
16,O=C(CCCCCN1C(=O)c2cccc3cccc(c23)C1=O)NO [Scriptaid],-33.3 ± 42
17,Nc1nc2c(ncn2COCCO)c(=O)[nH]1 [Acyclovir],-11.7 ± 7.2
18,COC(=O)[C@H](NC(=O)c1cc(-c2ccccc2)nc2ccccc12)c1ccccc1,5.95 ± 1.4
19,Cc1ccc2c(c1)C(=O)C1(O)CCN(c3ccccc3)C1=N2 (racemic) [(±)-Blebbistatin],12.4 ± 7.8

# Test system: mIMCD3
# Assay: robust z score of cilia incidence (% cells with single cilium) vs plate controls; higher = more ciliated cells (rescue of cilia loss)
# Settings: 10 µM; 48 h; siRNA: siRpgrip1l
row,Structure (SMILES),robust z score of cilia incidence
1,OC(CN1CCN(c2cccc(Cl)c2)CC1)C(c1ccccc1)c1ccccc1 (stereo not drawn),-14.1 ± 0.52
2,COc1cc(N)c(Cl)cc1C(=O)CCC1CCN(CCNS(C)(=O)=O)CC1,-21 ± 1.8
3,C#CCN1C(C)=C(C(=O)OC)C(c2cccc([N+](=O)[O-])c2)C(C(=O)OCC)=C1C (stereo not drawn),-13.1 ± 0.69
4,CCc1cc(-c2n[nH]c(C)c2-c2ccc3c(c2)OCCO3)c(O)cc1O,-34.4 ± 17
5,CN1CCc2cc(Cl)c(O)cc2[C@@H](c2ccccc2)C1,-7.72 ± 2.6
6,O=C1C(SCCO)=C(SCCO)C(=O)c2ccccc21,-455 ± 270
7,CCn1c(=O)[nH]c2ccccc21,-15.5 ± 2.1
8,COc1cc(-c2ccc(=O)[nH]n2)ccc1OC(F)F [Zardaverine],-10.8 ± 1.6
9,CC(C)C[C@@H](C(=O)N[C@H](C(=O)OC1CCCC1)c1ccccc1)[C@H](O)C(=O)NO,-12.8 ± 7.7
10,COC(=O)/C=C/c1cccc(N(Cc2ccc(-c3ccc(N(C)C)cc3)cc2)C(=O)C2CCCCC2)c1 [Fexaramine],-22.5 ± 4.2
11,COc1ccccc1N1CCN(CCCCN2C(=O)c3ccccc3C2=O)CC1 [NAN-190 hydrobromide],-8.62 ± 2.2
12,O=C1CC2(CCCC2)CC(=O)N1CCNCC1COc2ccccc2O1 (stereo not drawn),-37.7 ± 22
13,O=S(=O)(c1cccc2c(Cl)cccc12)N1CCCNCC1 [ML 9 hydrochloride],-47.2 ± 24
14,O=C(NCCNCC(O)COc1ccc(O)cc1)N1CCOCC1 (stereo not drawn) [Xamoterol hemifumarate],-8.8 ± 3.8
15,C[C@H](NC(=O)c1sccc1OCc1ccc(Cl)cc1)c1ccccc1,-36.4 ± 11
16,CCOC(=O)c1c(C)[nH]c2ccc3c(c12)CN1CCc2cc(OC)ccc2C1O3 (stereo not drawn),-81.4 ± 61
17,CCC(=O)NC1Cc2ccccc2C(c2ccccc2)C1 (stereo not drawn),-15.8 ± 2.9
18,CCCN(C/C=C/I)C1CCc2cccc(O)c2C1 (stereo not drawn) [8-Hydroxy-PIPAT oxalate],-6.8 ± 0.72
19,COc1ccc2c3c1O[C@H]1C[C@@H](O)C=C[C@@]31CCN(C)C2 [Galanthamine hydrobromide],-8.78 ± 2.7
20,N[C@@H](C(=O)O)c1ccc(O)c(C(=O)O)c1 [(R)-3-Carboxy-4-hydroxyphenylglycine],-3.09 ± 0.14

row,Structure (SMILES),robust z score of cilia incidence
1,Nc1nccc(-c2ccc3noc(-c4ccc(Cl)cc4)c3c2)n1 [PIM 1 Inhibitor 2],-7.12 ± 0.93
2,N#C/C(=C\c1ccc(O)c(O)c1)C(=O)NCCCCc1ccccc1,-26.8 ± 20
3,CC(C)c1ccc2c(c1)CC[C@H]1[C@](C)(CN)CCC[C@]21C [Lylamine hydrochloride],-55.3 ± 1.4
4,O=C(O)CC/C=C\C[C@H]1CO[C@@H](c2ccccc2Cl)O[C@H]1c1ccccc1O,-3.98 ± 2.9
5,CC(Oc1ccc(O)cc1)(P(=O)(O)O)P(=O)(O)O,-12.1 ± 3.3
6,O=C(/C=C/c1ccccc1)NC(NC(=S)Nc1cccc2cccnc12)C(Cl)(Cl)Cl (stereo not drawn) [Salubrinal],-13.2 ± 7.8
7,CCCn1c(=O)[nH]c2nc(-c3ccc(S(=O)(=O)O)cc3)[nH]c2c1=O,-13.6 ± 2.6
8,O=c1[nH]c2cc(C(F)(F)F)c(N3CCOCC3)cc2n(CP(=O)(O)O)c1=O,-8.13 ± 5.7
9,NC(C(=O)O)c1cc(O)cc(O)c1 (racemic),-8.08 ± 5.6
10,CSc1cc2c(cc1C(F)(F)F)N(C(=O)Nc1cccnc1)CC2,-5.84 ± 1.4
11,O=C(NC(NC(=S)Nc1ccc(F)c([N+](=O)[O-])c1)C(Cl)(Cl)Cl)C(c1ccccc1)c1ccccc1 (stereo not drawn),-53.8 ± 5.9
12,O=C1c2ccccc2C(Cc2ccncc2)(Cc2ccncc2)c2ccccc21 [XE 991 dihydrochloride],-13.6 ± 7.5
13,Cc1noc(NS(=O)(=O)c2ccc(N)cc2)c1C [Sulfisoxazole],-6.86 ± 1.7
14,O=C(OCCN1CCOCC1)C1(c2ccccc2)CCCCC1 [PRE-084 hydrochloride],-12.8 ± 2.4
15,CCN1CCCC1CNC(=O)c1cc(S(=O)(=O)CC)c(N)cc1OC (stereo not drawn) [Amisulpride],-6.46 ± 3.5
16,O=C(CCCCCN1C(=O)c2cccc3cccc(c23)C1=O)NO [Scriptaid],-33.4 ± 16
17,Nc1nc2c(ncn2COCCO)c(=O)[nH]1 [Acyclovir],-18.9 ± 1.9
18,COC(=O)[C@H](NC(=O)c1cc(-c2ccccc2)nc2ccccc12)c1ccccc1,-6.36 ± 1.5
19,Cc1ccc2c(c1)C(=O)C1(O)CCN(c3ccccc3)C1=N2 (racemic) [(±)-Blebbistatin],-8.69 ± 5.6
